{"source": "patent US11220528B2", "about": "“Compositions and methods for treating pulmonary hypertension” (Marshall University Research Corporation, priority 2017, dated 2022)", "key": {"HxSu rats [1]": {"system": "HxSu rats", "assay": "Picrosirius red stain of collagen deposition (lung vessels, right ventricle) in HxSu rats", "assay_type": "in vivo, rat", "experimental": "(§1) Rat model of Sugen5416/Hypoxia (HxSu)-induced PAH and pNaktide treatment. Adult male Sprague-Dawley rats, aged 8 weeks, weighing 300-330 g, were injected subcutaneously with Sugen 5416 weekly, and housed in a hypoxic chamber for up to 4 weeks, as described previously. Animals received pNaKtide or vehicle (normal saline) treatment via intraperitoneal injection at a dose of 1, 10 and 25 mg/kg weekly.\nPicrosirius red stain and quantification. Picrosirius red (PSR) stain was performed in 5 μm paraffin sections as described previously. The sections were then serially imaged using an analyzer and polarizer oriented parallel and orthogonal to each other. Microscope conditions (lamp brightness, condenser opening, objective, zoom, exposure time, and gain parameters) were maintained throughout the imaging of all samples. A minimal threshold was set on appropriate control sections for each experiment in which only the light passing through the orthogonally oriented polarizers representing fibrous structures (i.e., excluding residual light from the black background) was included. The threshold was maintained for all images across all conditions within each experiment. The area of the transferred regions that was covered by the thresholded light was calculated and at least 10 sections/vessel per condition were averaged together (NIH ImageJ software)."}, "HxSu rats [2]": {"system": "HxSu rats", "assay": "Echocardiographic assessment (PAAT, RV wall thickness) in rat model of Sugen5416/Hypoxia (HxSu)-induced PAH", "assay_type": "in vivo", "experimental": "as §1\nEchocardiographic Assessment. At 4 weeks, transthoracic echocardiography was performed by ultrasound on 2% isoflourane-anesthetized rats. Right ventricular wall thickness, pulmonary artery acceleration time (PAAT), cardiac output (CO) and HR were obtained as described."}, "protein carbonylation": {"system": "protein carbonylation", "assay": "Protein carbonylation in lung homogenates of HxSu rats (Western blot)", "assay_type": "in vivo, rat", "conditions": "25 mg/kg/week", "experimental": "as §1\nAssessment of protein carbonylation. Lung tissue homogenates were prepared with RIPA buffer. Equal amounts of total protein (15 μg) from each sample were denatured with 6% SDS (final concentration), derivatized with 1×DNPH (freshly diluted with distilled water from 10×DNPH stock solution, 100 mM in 100% trifluoroacetic acid) to form DNP hydrazone derivatives, and then neutralized with neutralization buffer (30% of Glycerol in 2M Tris). This was followed by Western Blotting for protein carbonylation assay. Membrane Ponceau S staining was used for loading control of the protein carbonylation. To quantify the carbonylation level, optical signal densities of the protein bands from each lane were quantified. The signal density values of control samples were normalized to 1.0 with Ponceau S staining as loading control."}, "HxSu rats [3]": {"system": "HxSu rats", "assay": "Right ventricular hypertrophy measurement (Fulton index) in HxSu rats", "assay_type": "in vivo, rat", "conditions": "HxSu rats treated with pNaKtide; HxSu 0.55±0.04, normoxic 0.20±0.01; dose not given", "experimental": "as §1\nRight ventricular hypertrophy measurements. After echocardiography, the rats were euthanized and their hearts were isolated, flushed with saline, and dissected to separate the right ventricle (RV) from the left ventricle (LV) plus the septum (S). The Fulton index, which is ratio of the RV weight to LV+S weight (RV/LV+S) was determined to provide a measure for the RV hypertrophy."}, "HxSu rats [4]": {"system": "HxSu rats", "assay": "Right ventricular systolic pressure measurement in HxSu rats", "assay_type": "in vivo, rat", "conditions": "25 mg/kg/week, HxSu 122.6±3.9, normoxia 18.7±0.3", "experimental": "as §1\nRight ventricular systolic pressure measurements. After echocardiography, the animals were anesthetized with Ketamine/Xylazine cocktail. The right external jugular vein was exposed and isolated from the surrounding connective tissue. A micromanometer catheter (Millar pressure catheter, 1.0 F) was inserted in to the vein and pushed forward into the right ventricle. The pressure trace was monitored in the software to verify the catheter location and identify the RV pressure. The pressure measurements were recorded for 2 mins. Pressure data was analyzed with LabChart Pro. 8.0."}, "HxSu rats [5]": {"system": "HxSu rats", "assay": "Lung histology and immunohistochemistry (vessel wall thickness, plexiform lesions) in HxSu rats", "assay_type": "in vivo, rat", "experimental": "as §1\nHistology and Immunohistochemistry analysis. The lungs were harvested and processed as described. Briefly, the lungs were inflated with 10% formalin at 20 cm H2O pressure and fixed in 10% formalin overnight. The left lobe was blocked and embedded in paraffin. All sections were cut at 5 μm. Representative hematoxylin and eosin-stained (H&E) lung section through the hilum was coded and blindly evaluated for remodeling of pulmonary arteries in the range of 10-150 μm. The vessel wall thickness of each arteriole was measured using Image J and expressed as: 1) percentage of the vessel diameter by the formula (Ed-Id)/Ed×100, where Ed is external diameter and Id is internal diameter; 2) percentage of the vessel area by the formula (areaext-areaint)/areaext, where areaext and areaint are the areas within the external and internal boundaries of the medial wall, respectively. Between 10 and 20 measurements were made per animal, and the average was calculated. […]"}, "IL-6 mRNA": {"system": "IL-6 mRNA", "assay": "Quantitative RT-PCR of IL-6 mRNA in lungs of HxSu rats", "assay_type": "in vivo, rat", "conditions": "25 mg/kg/week", "experimental": "as §1\nQuantitative RT-PCR Analysis. Total RNA was purified from crushed whole lung using the Qiagen RNeasy mini kit according to the manufacturer's instructions (Qiagen, Crawley, UK). Five hundred nanograms of total RNA was transcribed to cDNA using QuantiTect Reverse Transcription (Qiagen). Quantitative real-time RT-PCR was performed with the Sequence Detection System ABI Prism 7700 (Applied Biosystems, Warrington, UK) using TaqMan Universal PCR Master Mix, No AmpErase UNG (Part No. 4324018) and the following gene expression assays: IL-6 (Forward: 5′-TTCTCTCCGCAAGAGACTTCC-3′ (SEQ ID NO: 6); Reverse: 5′-TGF GGG TGG TAT CCT CTG TGA-3′ (SEQ ID NO: 7)) and (3-actin (Forward: 5′-AGATCAAGATCATTGCTCCT-3′ (SEQ ID NO: 8); Reverse: 5′-ACGCAGCTCAGTAACAGTCC-3′ (SEQ ID NO: 9)). Samples were run in triplicate. Levels of gene expression in each sample were determined with the comparative Ct method."}}, "data": [{"sequence": "GRKKRRQRRRPPQSATWLALSRIAGLCNRAVFQ (TAT NaKtide Fusion Polypeptide (pNaKtide))", "values": [{"measurement": "RV fibrosis (accumulation of collagen in right ventricle)", "setting": "HxSu rats [1]; HxSu rats treated with pNaKtide", "value": "normalized the fibrosis"}, {"measurement": "collagen deposition in vessel media and adventitia and lung parenchyma (picrosirius red)", "setting": "HxSu rats [1]; HxSu rats, 25 mg/kg/week, compared with HxSu group", "value": "attenuated the collagen deposition"}, {"measurement": "RV thickness assessed by echocardiography", "setting": "HxSu rats [2]; HxSu rats treated with pNaKtide, HxSu 1.65±0.07, normoxic 1.12±0.03, dose not given", "value": "1.37±0.11", "unit": "mm"}, {"measurement": "pulmonary artery acceleration time (PAAT)", "setting": "HxSu rats [2]; HxSu rats, 25 mg/kg/week intraperitoneal, at 4 weeks, vs HxSu group", "value": "significantly reverse in PAAT"}, {"measurement": "protein carbonylation in lung homogenates", "setting": "protein carbonylation", "value": "reduced the carbonylation to normal level"}, {"measurement": "Fulton index (RV/LV+S)", "setting": "HxSu rats [3]", "value": "0.36±0.004"}, {"measurement": "right ventricular systolic pressure (RVSP)", "setting": "HxSu rats [4]", "value": "49.7±0.5", "unit": "mmHg"}, {"measurement": "medial wall thickening of pulmonary arterioles", "setting": "HxSu rats [5]; intraperitoneal injection, 1-25 mg/kg", "value": "dose-dependently reduced"}, {"measurement": "number of plexiform lesions (PLs)", "setting": "HxSu rats [5]; lowest dose 1 mg/kg/week, 20 random fields at 20x, HxSu 13.80±4.23", "value": "2.16±1.081"}, {"measurement": "decrease of IL-6 mRNA levels in the lungs compared with HxSu group", "setting": "IL-6 mRNA", "value": 40, "unit": "%"}]}]}
